In patent publication US9119401B2, “Plant glutamine synthetase inhibitors and methods for their identification” (priority 2012, dated 2015):
At least one structure is not confirmed: it was looked up by name or label, or the drawing left a doubt.

Test system: Burkholderia A396
Type: cell-based, Burkholderia sp. A396
Settings: Table 2
Method: Antibiotic susceptibility of Burkholderia A396 is tested using antibiotic disks on Muller-Hinton medium as described in PML Microbiological's technical data sheet #535.

SMILES	Susceptibility of Burkholderia A396 (in words)
C[C@@H](O)[C@H]1C(=O)N2C(C(=O)O)=C(SCCN=CN)C[C@H]12 [Imipenem]	susceptible
NC[C@H]1O[C@H](O[C@H]2[C@H](O)[C@@H](O[C@H]3O[C@H](CO)[C@@H](O)[C@H](N)[C@H]3O)[C@H](N)C[C@@H]2N)[C@H](O)[C@@H](O)[C@@H]1O [Kanamycin]	susceptible
